First the molecules themselves.
B1: APBB1 (protein, UniProt O00213 1-710)
chain: MSVPSSLSQSAINANSHGGPALSLPLPLHAAHNQLLNAKLQATAVGPKDLRSAMGEGGGPEPGPANAKWLKEGQNQLRRAATAHRDQNRNVTLTLAEEASQEPEMAPLGPKGLIHLYSELELSAHNAANRGLRGPGLIISTQEQGPDEGEEKAAGEAEEEEEDDDDEEEEEDLSSPPGLPEPLESVEAPPRPQALTDGPREHSKSASLLFGMRNSAASDEDSSWATLSQGSPSYGSPEDTDSFWNPNAFETDSDLPAGWMRVQDTSGTYYWHIPTGTTQWEPPGRASPSQGSSPQEESQLTWTGFAHGEGFEDGEFWKDEPSDEAPMELGLKEPEEGTLTFPAQSLSPEPLPQEEEKLPPRNTNPGIKCFAVRSLGWVEMTEEELAPGRSSVAVNNCIRQLSYHKNNLHDPMSGGWGEGKDLLLQLEDETLKLVEPQSQALLHAQPIISIRVWGVGRDSGRERDFAYVARDKLTQMLKCHVFRCEAPAKNIATSLHEICSKIMAERRNARCLVNGLSLDHSKLVDVPFQVEFPAPKNELVQKFQVYYLGNVPVAKPVGVDVINGALESVLSSSSREQWTPSHVSVAPATLTILHQQTEAVLGECRVRFLSFLAVGRDVHTFAFIMAAGPASFCCHMFWCEPNAASLSEAVQAACMLRYQKCLDARSQASTSCLPAPPAESVARRVGWTVRRGVQSLWGSLKPKRLGAHTP
B2: NPRL2 (protein, UniProt Q8WTW4 1-380)
chain: MGSGCRIECIFFSEFHPTLGPKITYQVPEDFISRELFDTVQVYIITKPELQNKLITVTAMEKKLIGCPVCIEHKKYSRNALLFNLGFVCDAQAKTCALEPIVKKLAGYLTTLELESSFVSMEESKQKLVPIMTILLEELNASGRCTLPIDESNTIHLKVIEQRPDPPVAQEYDVPVFTKDKEDFFNSQWDLTTQQILPYIDGFRHIQKISAEADVELNLVRIAIQNLLYYGVVTLVSILQYSNVYCPTPKVQDLVDDKSLQEACLSYVTKQGHKRASLRDVFQLYCSLSPGTTVRDLIGRHPQQLQHVDERKLIQFGLMKNLIRRLQKYPVRVTREEQSHPARLYTGCHSYDEICCKTGMSYHELDERLENDPNIIICWK
B3: PIBF1 (protein, UniProt Q8WXW3 1-757)
chain: MSRKISKESKKVNISSSLESEDISLETTVPTDDISSSEEREGKVRITRQLIERKELLHNIQLLKIELSQKTMMIDNLKVDYLTKIEELEEKLNDALHQKQLLTLRLDNQLAFQQKDASKYQELMKQEMETILLRQKQLEETNLQLREKAGDVRRNLRDFELTEEQYIKLKAFPEDQLSIPEYVSVRFYELVNPLRKEICELQVKKNILAEELSTNKNQLKQLTETYEEDRKNYSEVQIRCQRLALELADTKQLIQQGDYRQENYDKVKSERDALEQEVIELRRKHEILEASHMIQTKERSELSKEVVTLEQTVTLLQKDKEYLNRQNMELSVRCAHEEDRLERLQAQLEESKKAREEMYEKYVASRDHYKTEYENKLHDELEQIRLKTNQEIDQLRNASREMYERENRNLREARDNAVAEKERAVMAEKDALEKHDQLLDRYRELQLSTESKVTEFLHQSKLKSFESERVQLLQEETARNLTQCQLECEKYQKKLEVLTKEFYSLQASSEKRITELQAQNSEHQARLDIYEKLEKELDEIIMQTAEIENEDEAERVLFSYGYGANVPTTAKRRLKQSVHLARRVLQLEKQNSLILKDLEHRKDQVTQLSQELDRANSLLNQTQQPYRYLIESVRQRDSKIDSLTESIAQLEKDVSNLNKEKSALLQTKNQMALDLEQLLNHREELAAMKQILVKMHSKHSENSLLLTKTEPKHVTENQKSKTLNVPKEHEDNIFTPKPTLFTKKEAPEWSKKQKMKT
B4: IRS2 (protein, UniProt Q9Y4H2 1-1338)
chain: MASPPRHGPPGPASGDGPNLNNNNNNNNHSVRKCGYLRKQKHGHKRFFVLRGPGAGGDEATAGGGSAPQPPRLEYYESEKKWRSKAGAPKRVIALDCCLNINKRADAKHKYLIALYTKDEYFAVAAENEQEQEGWYRALTDLVSEGRAAAGDAPPAAAPAASCSASLPGALGGSAGAAGAEDSYGLVAPATAAYREVWQVNLKPKGLGQSKNLTGVYRLCLSARTIGFVKLNCEQPSVTLQLMNIRRCGHSDSFFFIEVGRSAVTGPGELWMQADDSVVAQNIHETILEAMKALKELFEFRPRSKSQSSGSSATHPISVPGARRHHHLVNLPPSQTGLVRRSRTDSLAATPPAAKCSSCRVRTASEGDGGAAAGAAAAGARPVSVAGSPLSPGPVRAPLSRSHTLSGGCGGRGSKVALLPAGGALQHSRSMSMPVAHSPPAATSPGSLSSSSGHGSGSYPPPPGPHPPLPHPLHHGPGQRPSSGSASASGSPSDPGFMSLDEYGSSPGDLRAFCSHRSNTPESIAETPPARDGGGGGEFYGYMTMDRPLSHCGRSYRRVSGDAAQDLDRGLRKRTYSLTTPARQRPVPQPSSASLDEYTLMRATFSGSAGRLCPSCPASSPKVAYHPYPEDYGDIEIGSHRSSSSNLGADDGYMPMTPGAALAGSGSGSCRSDDYMPMSPASVSAPKQILQPRAAAAAAAAVPSAGPAGPAPTSAAGRTFPASGGGYKASSPAESSPEDSGYMRMWCGSKLSMEHADGKLLPNGDYLNVSPSDAVTTGTPPDFFSAALHPGGEPLRGVPGCCYSSLPRSYKAPYTCGGDSDQYVLMSSPVGRILEEERLEPQATPGPSQAASAFGAGPTQPPHPVVPSPVRPSGGRPEGFLGQRGRAVRPTRLSLEGLPSLPSMHEYPLPPEPKSPGEYINIDFGEPGARLSPPAPPLLASAASSSSLLSASSPASSLGSGTPGTSSDSRQRSPLSDYMNLDFSSPKSPKPGAPSGHPVGSLDGLLSPEASSPYPPLPPRPSASPSSSLQPPPPPPAPGELYRLPPASAVATAQGPGAASSLSSDTGDNGDYTEMAFGVAATPPQPIAAPPKPEAARVASPTSGVKRLSLMEQVSGVEAFLQASQPPDPHRGAKVIRADPQGGRRRHSSETFSSTTTVTPVSPSFAHNPKRHNSASVENVSLRKSSEGGVGVGPGGGDEPPTSPRQLQPAPPLAPQGRPWTPGQPGGLVGCPGSGGSPMRRETSAGFQNGLNYIAIDVREEPGLPPQPQPPPPPLPQPGDKSSWGRTRSLGGLISAVGVGSTGGGCGGPGPGALPPANTYASIDFLSHHLKEATIVKE
B5: ITFG2 (protein, UniProt Q969R8 1-447)
chain: MRSVSYVQRVALEFSGSLFPHAICLGDVDNDTLNELVVGDTSGKVSVYKNDDSRPWLTCSCQGMLTCVGVGDVCNKGKNLLVAVSAEGWFHLFDLTPAKVLDASGHHETLIGEEQRPVFKQHIPANTKVMLISDIDGDGCRELVVGYTDRVVRAFRWEELGEGPEHLTGQLVSLKKWMLEGQVDSLSVTLGPLGLPELMVSQPGCAYAILLCTWKKDTGSPPASEGPTDGSRETPAARDVVLHQTSGRIHNKNVSTHLIGNIKQGHGTESSGSGLFALCTLDGTLKLMEEMEEADKLLWSVQVDHQLFALEKLDVTGNGHEEVVACAWDGQTYIIDHNRTVVRFQVDENIRAFCAGLYACKEGRNSPCLVYVTFNQKIYVYWEVQLERMESTNLVKLLETKPEYHSLLQELGVDPDDLPVTRALLHQTLYHPDQPPQCAPSSLQDPT
B6: ATG101 (protein, UniProt Q9BSB4 1-218)
chain: MNCRSEVLEVSVEGRQVEEAMLAVLHTVLLHRSTGKFHYKKEGTYSIGTVGTQDVDCDFIDFTYVRVSSEELDRALRKVVGEFKDALRNSGGDGLGQMSLEFYQKKKSRWPFSDECIPWEVWTVKVHVVALATEQERQICREKVGEKLCEKIINIVEVMNRHEYLPKMPTQSEVDNVFDTGLRDVQPYLYKISFQITDALGTSVTTTMRRLIKDTLAL
B7: BNIP1 (protein, UniProt Q12981 1-228)
chain: MAAPQDVHVRICNQEIVKFDLEVKALIQDIRDCSGPLSALTELNTKVKEKFQQLRHRIQDLEQLAKEQDKESEKQLLLQEVENHKKQMLSNQASWRKANLTCKIAIDNLEKAELLQGGDLLRQRKTTKESLAQTSSTITESLMGISRMMAQQVQQSEEAMQSLVTSSRTILDANEEFKSMSGTIQLGRKLITKYNRRELTDKLLIFLALALFLATVLYIVKKRLFPFL

We go through 7 molecules from PMC8534408.

No constants are given. Whether binding was seen depends on the method and setting. Binding seen in cells or lysates may run through a third protein. Here binding means that the protein was enriched with, or labelled near, the bait; the list need not be complete.

The experiment concerns the target SH.SZT2WT (STREP-HA tagged seizure threshold 2, wild type) (human). The experiment can be described thus: affinity purification with mass spectrometry; SH.SZT2WT or SH.GFP bait from cleared lysate of tetracycline-induced HEK293 Flp-In T-Rex cells held on Strep-Tactin Sepharose, 1 h, 4 °C, 50 mM HEPES pH 8.0, 150 mM NaCl, 5 mM EDTA, 0.5% NP-40, 50 mM NaF; eluted with 2.5 mM D-biotin; LC-MS/MS; cells starved of amino acids and growth factors for 1 h (STA) or restimulated for 20 min (STI); hits: p-value <= 0.05 and fold-change >= 5 over the GFP control.
Take B1: the binding result is “binds”.

Consider B2, for which the binding entry is listed as “binds”.

Turning to B3, the binding entry is “binds”.

On to B4, for which the binding entry is “binds”.

As for B5, the binding entry is “binds”.

As to B6, the binding entry is “binds”.

Regarding B7, the binding result was “binds”.
